Test results from publication PMC7321188.
These are yes or no findings as the source states them, for the method shown. For some of these results: In cells and extracts the contact can be indirect. Some binding calls cover weakened binding; strength is not graded here.

Chains of the proteins cited; added tags and fusions are not shown. Lines headed by an entry give the natural chain unless they say otherwise; changes in a name come on top.
UniProt Q99962: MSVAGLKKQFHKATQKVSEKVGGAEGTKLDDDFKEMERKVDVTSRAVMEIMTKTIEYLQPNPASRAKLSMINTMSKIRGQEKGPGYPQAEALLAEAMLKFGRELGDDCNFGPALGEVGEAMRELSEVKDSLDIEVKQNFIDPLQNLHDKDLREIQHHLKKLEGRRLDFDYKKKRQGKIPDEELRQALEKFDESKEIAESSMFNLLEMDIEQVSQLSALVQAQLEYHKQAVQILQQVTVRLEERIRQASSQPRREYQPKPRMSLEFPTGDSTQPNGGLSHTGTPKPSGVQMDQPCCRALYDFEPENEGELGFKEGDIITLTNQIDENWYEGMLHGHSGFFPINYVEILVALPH
UniProt Q5S007: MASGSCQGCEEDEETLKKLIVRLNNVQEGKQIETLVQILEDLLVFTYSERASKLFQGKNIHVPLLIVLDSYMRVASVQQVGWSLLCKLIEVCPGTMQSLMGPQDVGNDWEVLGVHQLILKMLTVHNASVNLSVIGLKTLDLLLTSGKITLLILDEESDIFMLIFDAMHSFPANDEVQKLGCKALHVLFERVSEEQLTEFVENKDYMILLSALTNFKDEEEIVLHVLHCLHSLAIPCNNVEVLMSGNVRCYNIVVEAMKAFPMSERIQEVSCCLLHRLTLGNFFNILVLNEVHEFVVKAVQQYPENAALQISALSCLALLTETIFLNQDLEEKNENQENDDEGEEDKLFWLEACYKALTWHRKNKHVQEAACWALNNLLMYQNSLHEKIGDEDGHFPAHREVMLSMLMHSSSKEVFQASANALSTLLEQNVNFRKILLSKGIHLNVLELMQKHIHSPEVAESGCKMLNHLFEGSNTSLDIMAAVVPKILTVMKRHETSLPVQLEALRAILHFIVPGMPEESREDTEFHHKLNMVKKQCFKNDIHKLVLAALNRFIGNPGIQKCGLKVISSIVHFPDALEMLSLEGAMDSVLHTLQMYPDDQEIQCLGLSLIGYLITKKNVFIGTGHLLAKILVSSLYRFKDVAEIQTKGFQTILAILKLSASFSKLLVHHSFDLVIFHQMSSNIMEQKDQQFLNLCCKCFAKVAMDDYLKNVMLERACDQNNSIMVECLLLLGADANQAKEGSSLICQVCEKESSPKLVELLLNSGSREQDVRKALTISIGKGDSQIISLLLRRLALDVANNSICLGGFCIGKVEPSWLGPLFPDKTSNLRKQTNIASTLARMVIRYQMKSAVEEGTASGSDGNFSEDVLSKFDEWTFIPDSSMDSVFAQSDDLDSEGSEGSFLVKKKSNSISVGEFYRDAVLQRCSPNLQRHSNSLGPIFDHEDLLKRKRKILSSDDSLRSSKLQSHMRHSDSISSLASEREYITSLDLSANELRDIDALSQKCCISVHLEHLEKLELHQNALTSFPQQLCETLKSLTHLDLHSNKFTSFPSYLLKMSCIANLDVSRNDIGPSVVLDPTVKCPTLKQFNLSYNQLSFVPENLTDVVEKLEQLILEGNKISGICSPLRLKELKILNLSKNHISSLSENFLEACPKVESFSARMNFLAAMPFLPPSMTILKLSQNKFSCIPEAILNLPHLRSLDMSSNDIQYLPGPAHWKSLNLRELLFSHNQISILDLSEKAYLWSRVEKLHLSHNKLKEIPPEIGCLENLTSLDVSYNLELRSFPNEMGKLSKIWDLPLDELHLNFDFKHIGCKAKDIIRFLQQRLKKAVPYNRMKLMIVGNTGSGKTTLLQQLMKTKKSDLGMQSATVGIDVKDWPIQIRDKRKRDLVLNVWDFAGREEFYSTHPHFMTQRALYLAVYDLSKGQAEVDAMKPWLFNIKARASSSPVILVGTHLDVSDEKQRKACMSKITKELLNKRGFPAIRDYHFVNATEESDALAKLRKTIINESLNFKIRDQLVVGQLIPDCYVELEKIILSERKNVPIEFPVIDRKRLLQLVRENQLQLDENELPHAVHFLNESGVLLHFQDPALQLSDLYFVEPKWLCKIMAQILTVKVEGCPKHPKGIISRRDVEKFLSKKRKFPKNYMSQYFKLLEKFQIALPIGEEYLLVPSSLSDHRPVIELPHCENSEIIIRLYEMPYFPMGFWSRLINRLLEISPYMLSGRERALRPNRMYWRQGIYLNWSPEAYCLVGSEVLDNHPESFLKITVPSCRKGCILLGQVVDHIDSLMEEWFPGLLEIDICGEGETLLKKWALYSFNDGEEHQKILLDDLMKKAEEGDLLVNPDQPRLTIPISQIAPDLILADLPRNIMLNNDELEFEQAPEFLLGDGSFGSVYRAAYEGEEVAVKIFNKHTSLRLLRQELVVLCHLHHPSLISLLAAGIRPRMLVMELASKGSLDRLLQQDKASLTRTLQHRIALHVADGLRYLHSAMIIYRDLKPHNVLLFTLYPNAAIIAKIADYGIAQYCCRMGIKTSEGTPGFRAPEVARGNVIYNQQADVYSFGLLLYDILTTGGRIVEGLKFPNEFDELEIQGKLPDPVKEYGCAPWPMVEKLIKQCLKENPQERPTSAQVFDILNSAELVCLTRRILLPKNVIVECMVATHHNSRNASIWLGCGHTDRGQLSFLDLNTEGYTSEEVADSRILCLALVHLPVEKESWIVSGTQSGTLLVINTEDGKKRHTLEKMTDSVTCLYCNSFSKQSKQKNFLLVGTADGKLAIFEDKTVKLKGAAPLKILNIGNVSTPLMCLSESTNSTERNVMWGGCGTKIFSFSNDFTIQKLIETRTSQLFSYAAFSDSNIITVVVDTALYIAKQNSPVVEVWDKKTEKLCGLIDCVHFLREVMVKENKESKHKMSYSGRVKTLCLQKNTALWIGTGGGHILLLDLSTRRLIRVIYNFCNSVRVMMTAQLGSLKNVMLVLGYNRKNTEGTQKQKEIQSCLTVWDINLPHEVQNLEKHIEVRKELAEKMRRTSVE

Legend:
Endophilin A1-mCherry [1] = target: Endophilin A1-mCherry (UniProt Q99962); assay: FRET or BRET; FLIM/FRET with phasor analysis, GFP donor lifetime, two-photon excitation at 920 nm, live differentiated SH-SY5Y cells co-expressing LRRK2-GFP and EndoA1-mCherry
Endophilin A1-mCherry [2] = target: Endophilin A1-mCherry (UniProt Q99962); assay: cross-correlation raster image correlation spectroscopy (ccRICS); two-photon excitation at 1000 nm, live differentiated SH-SY5Y cells co-expressing LRRK2-GFP and EndoA1-mCherry, 37 °C

| binding (Endophilin A1-mCherry [1]) | binding (Endophilin A1-mCherry [2]) | Substance |
| --- | --- | --- |
| binds | binds | G2019S LRRK2-GFP (Parkinson's disease mutant of Leucine-Rich Repeat Kinase 2, GFP fusion) (from UniProt Q5S007 1-2527) |
| binds | binds | WT LRRK2-GFP (Leucine-Rich Repeat Kinase 2, wild type, GFP fusion) (from UniProt Q5S007 1-2527) |
